# B1: P17813 (protein, UniProt P17813 1-658, looked up)
# chain: MDRGTLPLAVALLLASCSLSPTSLAETVHCDLQPVGPERGEVTYTTSQVSKGCVAQAPNAILEVHVLFLEFPTGPSQLELTLQASKQNGTWPREVLLVLSVNSSVFLHLQALGIPLHLAYNSSLVTFQEPPGVNTTELPSFPKTQILEWAAERGPITSAAELNDPQSILLRLGQAQGSLSFCMLEASQDMGRTLEWRPRTPALVRGCHLEGVAGHKEAHILRVLPGHSAGPRTVTVKVELSCAPGDLDAVLILQGPPYVSWLIDANHNMQIWTTGEYSFKIFPEKNIRGFKLPDTPQGLLGEARMLNASIVASFVELPLASIVSLHASSCGGRLQTSPAPIQTTPPKDTCSPELLMSLIQTKCADDAMTLVLKKELVAHLKCTITGLTFWDPSCEAEDRGDKFVLRSAYSSCGMQVSASMISNEAVVNILSSSSPQRKKVHCLNMDSLSFQLGLYLSPHFLQASNTIEPGQQSFVQVRVSPSVSEFLLQLDSCHLDLGPEGGTVELIQGRAAKGNCVSLLSPSPEGDPRFSFLLHFYTVPIPKTGTLSCTVALRPKTGSQDQEVHRTVFMRLNIISPDLSGCTSKGLVLPAVLGITFGAFLIGALLTAALWYIYSHTRSPSKREPVVAVAAPASSESSSTNHSIGSTQSTPCSTSSMA
# modifications: full-length
# B2: O00469 (protein, UniProt O00469 1-737, looked up)
# chain: MGGCTVKPQLLLLALVLHPWNPCLGADSEKPSSIPTDKLLVITVATKESDGFHRFMQSAKYFNYTVKVLGQGEEWRGGDGINSIGGGQKVRLMKEVMEHYADQDDLVVMFTECFDVIFAGGPEEVLKKFQKANHKVVFAADGILWPDKRLADKYPVVHIGKRYLNSGGFIGYAPYVNRIVQQWNLQDNDDDQLFYTKVYIDPLKREAINITLDHKCKIFQTLNGAVDEVVLKFENGKARAKNTFYETLPVAINGNGPTKILLNYFGNYVPNSWTQDNGCTLCEFDTVDLSAVDVHPNVSIGVFIEQPTPFLPRFLDILLTLDYPKEALKLFIHNKEVYHEKDIKVFFDKAKHEIKTIKIVGPEENLSQAEARNMGMDFCRQDEKCDYYFSVDADVVLTNPRTLKILIEQNRKIIAPLVTRHGKLWSNFWGALSPDGYYARSEDYVDIVQGNRVGVWNVPYMANVYLIKGKTLRSEMNERNYFVRDKLDPDMALCRNAREMGVFMYISNRHEFGRLLSTANYNTSHYNNDLWQIFENPVDWKEKYINRDYSKIFTENIVEQPCPDVFWFPIFSEKACDELVEEMEHYGKWSGGKHHDSRISGGYENVPTDDIHMKQVDLENVWLHFIREFIAPVTLKVFAGYYTKGFALLNFVVKYSPERQRSLRPHHDASTFTINIALNNVGEDFQGGGCKFLRYNCSIESPRKGWSFMHPGRLTHLHEGLPVKNGTRYIAVSFIDP
# modifications: full-length
# B3: Q96AQ6 (protein, UniProt Q96AQ6 1-731, looked up)
# chain: MASCPDSDNSWVLAGSESLPVETLGPASRMDPESERALQAPHSPSKTDGKELAGTMDGEGTLFQTESPQSGSILTEETEVKGTLEGDVCGVEPPGPGDTVVQGDLQETTVVTGLGPDTQDLEGQSPPQSLPSTPKAAWIREEGRCSSSDDDTDVDMEGLRRRRGREAGPPQPMVPLAVENQAGGEGAGGELGISLNMCLLGALVLLGLGVLLFSGGLSESETGPMEEVERQVLPDPEVLEAVGDRQDGLREQLQAPVPPDSVPSLQNMGLLLDKLAKENQDIRLLQAQLQAQKEELQSLMHQPKGLEEENAQLRGALQQGEAFQRALESELQQLRARLQGLEADCVRGPDGVCLSGGRGPQGDKAIREQGPREQEPELSFLKQKEQLEAEAQALRQELERQRRLLGSVQQDLERSLQDASRGDPAHAGLAELGHRLAQKLQGLENWGQDPGVSANASKAWHQKSHFQNSREWSGKEKWWDGQRDRKAEHWKHKKEESGRERKKNWGGQEDREPAGRWKEGRPRVEESGSKKEGKRQGPKEPPRKSGSFHSSGEKQKQPRWREGTKDSHDPLPSWAELLRPKYRAPQGCSGVDECARQEGLTFFGTELAPVRQQELASLLRTYLARLPWAGQLTKELPLSPAFFGEDGIFRHDRLRFRDFVDALEDSLEEVAVQQTGDDDEVDDFEDFIFSHFFGDKALKKRSGKKDKHSQSPRAAGPREGHSHSHHHHHRG
# modifications: full-length
# B4: P21291 (protein, UniProt P21291 1-193, looked up)
# chain: MPNWGGGKKCGVCQKTVYFAEEVQCEGNSFHKSCFLCMVCKKNLDSTTVAVHGEEIYCKSCYGKKYGPKGYGYGQGAGTLSTDKGESLGIKHEEAPGHRPTTNPNASKFAQKIGGSERCPRCSQAVYAAEKVIGAGKSWHKACFRCAKCGKGLESTTLADKDGEIYCKGCYAKNFGPKGFGFGQGAGALVHSE
# modifications: full-length
# B5: Q9UBS4 (protein, UniProt Q9UBS4 1-358, looked up)
# chain: MAPQNLSTFCLLLLYLIGAVIAGRDFYKILGVPRSASIKDIKKAYRKLALQLHPDRNPDDPQAQEKFQDLGAAYEVLSDSEKRKQYDTYGEEGLKDGHQSSHGDIFSHFFGDFGFMFGGTPRQQDRNIPRGSDIIVDLEVTLEEVYAGNFVEVVRNKPVARQAPGKRKCNCRQEMRTTQLGPGRFQMTQEVVCDECPNVKLVNEERTLEVEIEPGVRDGMEYPFIGEGEPHVDGEPGDLRFRIKVVKHPIFERRGDDLYTNVTISLVESLVGFEMDITHLDGHKVHISRDKITRPGAKLWKKGEGLPNFDNNNIKGSLIITFDVDFPKEQLTEEAREGIKQLLKQGSVQKVYNGLQGY
# modifications: full-length
# B6: P20340 (protein, UniProt P20340 1-208, looked up)
# chain: MSTGGDFGNPLRKFKLVFLGEQSVGKTSLITRFMYDSFDNTYQATIGIDFLSKTMYLEDRTVRLQLWDTAGQERFRSLIPSYIRDSTVAVVVYDITNVNSFQQTTKWIDDVRTERGSDVIIMLVGNKTDLADKRQVSIEEGERKAKELNVMFIETSAKAGYNVKQLFRRVAAALPGMESTQDRSREDMIDIKLEKPQEQPVSEGGCSC
# modifications: full-length
# B7: Q92499 (protein, UniProt Q92499 1-740, looked up)
# chain: MAAFSEMGVMPEIAQAVEEMDWLLPTDIQAESIPLILGGGDVLMAAETGSGKTGAFSIPVIQIVYETLKDQQEGKKGKTTIKTGASVLNKWQMNPYDRGSAFAIGSDGLCCQSREVKEWHGCRATKGLMKGKHYYEVSCHDQGLCRVGWSTMQASLDLGTDKFGFGFGGTGKKSHNKQFDNYGEEFTMHDTIGCYLDIDKGHVKFSKNGKDLGLAFEIPPHMKNQALFPACVLKNAELKFNFGEEEFKFPPKDGFVALSKAPDGYIVKSQHSGNAQVTQTKFLPNAPKALIVEPSRELAEQTLNNIKQFKKYIDNPKLRELLIIGGVAARDQLSVLENGVDIVVGTPGRLDDLVSTGKLNLSQVRFLVLDEADGLLSQGYSDFINRMHNQIPQVTSDGKRLQVIVCSATLHSFDVKKLSEKIMHFPTWVDLKGEDSVPDTVHHVVVPVNPKTDRLWERLGKSHIRTDDVHAKDNTRPGANSPEMWSEAIKILKGEYAVRAIKEHKMDQAIIFCRTKIDCDNLEQYFIQQGGGPDKKGHQFSCVCLHGDRKPHERKQNLERFKKGDVRFLICTDVAARGIDIHGVPYVINVTLPDEKQNYVHRIGRVGRAERMGLAISLVATEKEKVWYHVCSSRGKGCYNTRLKEDGGCTIWYNEMQLLSEIEEHLNCTISQVEPDIKVPVDEFDGKVTYGQKRAAGGGSYKGHVDILAPTVQELAALEKEAQTSFLHLGYLPNQLFRTF
# modifications: full-length
# B8: P15313 (protein, UniProt P15313 1-513, looked up)
# chain: MAMEIDSRPGGLPGSSCNLGAAREHMQAVTRNYITHPRVTYRTVCSVNGPLVVLDRVKFAQYAEIVHFTLPDGTQRSGQVLEVAGTKAIVQVFEGTSGIDARKTTCEFTGDILRTPVSEDMLGRVFNGSGKPIDKGPVVMAEDFLDINGQPINPHSRIYPEEMIQTGISPIDVMNSIARGQKIPIFSAAGLPHNEIAAQICRQAGLVKKSKAVLDYHDDNFAIVFAAMGVNMETARFFKSDFEQNGTMGNVCLFLNLANDPTIERIITPRLALTTAEFLAYQCEKHVLVILTDMSSYAEALREVSAAREEVPGRRGFPGYMYTDLATIYERAGRVEGRGGSITQIPILTMPNDDITHPIPDLTGFITEGQIYVDRQLHNRQIYPPINVLPSLSRLMKSAIGEGMTRKDHGDVSNQLYACYAIGKDVQAMKAVVGEEALTSEDLLYLEFLQKFEKNFINQGPYENRSVFESLDLGWKLLRIFPKEMLKRIPQAVIDEFYSREGALQDLAPDTAL
# modifications: full-length
# B9: P62879 (protein, UniProt P62879 1-340, looked up)
# chain: MSELEQLRQEAEQLRNQIRDARKACGDSTLTQITAGLDPVGRIQMRTRRTLRGHLAKIYAMHWGTDSRLLVSASQDGKLIIWDSYTTNKVHAIPLRSSWVMTCAYAPSGNFVACGGLDNICSIYSLKTREGNVRVSRELPGHTGYLSCCRFLDDNQIITSSGDTTCALWDIETGQQTVGFAGHSGDVMSLSLAPDGRTFVSGACDASIKLWDVRDSMCRQTFIGHESDINAVAFFPNGYAFTTGSDDATCRLFDLRADQELLMYSHDNIICGITSVAFSRSGRLLLAGYDDFNCNIWDAMKGDRAGVLAGHDNRVSCLGVTDDGMAVATGSWDSFLKIWN
# modifications: full-length
# B10: P80723 (protein, UniProt P80723 1-227, looked up)
# chain: MGGKLSKKKKGYNVNDEKAKEKDKKAEGAATEEEGTPKESEPQAAAEPAEAKEGKEKPDQDAEGKAEEKEGEKDAAAAKEEAPKAEPEKTEGAAEAKAEPPKAPEQEQAAPGPAAGGEAPKAAEAAAAPAESAAPAAGEEPSKEEGEPKKTEAPAAPAAQETKSDGAPASDSKPGSSEAAPSSKETPAATEAPSSTPKAQGPAASAEEPKPVEAPAANSDQTVTVKE
# modifications: full-length
# Assay: Proteomics analysis (trypsin digest, LC-MS/MS) of hMSC ghosts and derived CDLs, conditioned or unconditioned by PC3 medium
# Design: species or system human
# Details: LC-MS/MS peak area per protein; for Ratio of expression Cond. CDLs/Cond. Ghosts: CDLs derived from conditioned hMSCs versus conditioned ghosts; for Ratio of expression Cond Ghosts/Ghosts: hMSC ghosts conditioned by PC3 medium versus unconditioned ghosts
Molecule,Ratio of expression Cond. CDLs/Cond. Ghosts [%],Ratio of expression Cond Ghosts/Ghosts [%]
B1,11,100
B2,2,120
B3,27,100
B4,21,100
B5,12,100
B6,100,100
B7,15,100
B8,12,100
B9,21,100
B10,33,100

# — patent US11065203B2, “Liposomal compositions and uses of same” (Technion Research & Development Foundation Limited, priority 2009, dated 2021)
